These are yes or no findings as the source states them, for the method shown. Binding seen in cells or lysates may run through a third protein. Some entries that bind do so weakly or less than the wild type.

Chains of the proteins cited; added tags and fusions are not shown.
UniProt Q13547: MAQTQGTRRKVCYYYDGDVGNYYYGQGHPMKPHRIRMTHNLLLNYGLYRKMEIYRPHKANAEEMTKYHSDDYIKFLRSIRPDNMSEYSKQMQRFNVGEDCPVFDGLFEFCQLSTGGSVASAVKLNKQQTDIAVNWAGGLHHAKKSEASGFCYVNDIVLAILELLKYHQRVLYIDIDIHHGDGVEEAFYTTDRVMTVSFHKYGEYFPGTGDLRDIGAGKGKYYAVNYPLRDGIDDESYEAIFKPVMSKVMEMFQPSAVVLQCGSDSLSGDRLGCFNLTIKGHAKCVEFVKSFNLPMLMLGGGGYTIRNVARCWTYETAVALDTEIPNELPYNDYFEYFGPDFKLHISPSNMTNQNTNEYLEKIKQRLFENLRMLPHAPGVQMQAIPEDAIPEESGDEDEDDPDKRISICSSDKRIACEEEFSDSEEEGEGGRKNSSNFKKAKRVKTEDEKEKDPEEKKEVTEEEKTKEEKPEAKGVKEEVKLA
UniProt Q92769: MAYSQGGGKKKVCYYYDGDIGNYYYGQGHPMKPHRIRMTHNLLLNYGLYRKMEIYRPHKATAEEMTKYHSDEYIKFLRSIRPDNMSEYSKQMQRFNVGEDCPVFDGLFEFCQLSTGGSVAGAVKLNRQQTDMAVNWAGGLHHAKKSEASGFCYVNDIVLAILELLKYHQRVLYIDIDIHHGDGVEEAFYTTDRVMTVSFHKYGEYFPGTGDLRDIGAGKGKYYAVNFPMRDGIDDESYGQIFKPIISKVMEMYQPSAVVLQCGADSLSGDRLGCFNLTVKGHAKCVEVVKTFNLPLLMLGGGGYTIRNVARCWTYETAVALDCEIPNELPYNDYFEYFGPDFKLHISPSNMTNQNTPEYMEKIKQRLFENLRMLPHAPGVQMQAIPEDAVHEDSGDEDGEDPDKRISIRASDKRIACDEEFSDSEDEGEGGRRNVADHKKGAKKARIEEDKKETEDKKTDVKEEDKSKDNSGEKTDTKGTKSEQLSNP

Consider two substances from publication PMC8406261.

For the assay, the target named is T1, FKBP3 (human (endogenous in C11)) (UniProt Q00688).
T1 sequence: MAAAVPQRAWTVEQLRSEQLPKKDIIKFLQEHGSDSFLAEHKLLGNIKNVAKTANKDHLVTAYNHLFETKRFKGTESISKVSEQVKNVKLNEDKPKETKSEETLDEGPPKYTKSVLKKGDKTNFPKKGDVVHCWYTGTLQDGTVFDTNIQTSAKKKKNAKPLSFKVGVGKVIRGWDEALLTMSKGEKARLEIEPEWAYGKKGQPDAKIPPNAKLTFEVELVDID
Briefly: co-IP; immunoprecipitation from C11 cell lysates with anti-FKBP3 antibody, Western blotting with anti-YY1, anti-HDAC1 or anti-HDAC2 antibodies.

As to “histone deacetylase 1 (from UniProt Q13547 1-482) (enzyme)”, the binding entry is recorded as “binds”.

Consider “histone deacetylase 2 (from UniProt Q92769 1-488) (enzyme)”, for which the binding entry was “binds”.
